Source: the supplement of paper PMC4604168 (melanoma cell lines)
This is one part of the list. Many values rest on one well or one pass, so single values are uncertain.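 Cells were imaged in 1,536-well plates, and nuclei stained with an antibody against cleaved PARP were counted against all DNA-stained nuclei to give the apoptosis fraction. Screening doses were chosen to leave most cells alive, and resting and induced cleaved-PARP levels differ strongly between cell lines.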

Key:
Experiment in all cases: cleaved PARP positive nuclei fraction relative to DMSO control; melanoma cells; higher = more apoptosis
Conditions in all cases: library dose: low library concentration; 72 h
MZ2-MEL = system: MZ2-MEL
MeWo = system: MeWo
RPMI7951 = system: RPMI7951
RVH-421 = system: RVH-421
SkMel28 = system: SkMel28
SkMel2 = system: SkMel2
SkMel30 = system: SkMel30
UACC62 = system: UACC62
WM115 = system: WM115
WM1716 = system: WM1716
WM1745 = system: WM1745
WM3526 = system: WM3526
WM3619 = system: WM3619
WM451Lu = system: WM451Lu

SMILES | cleaved PARP positive nuclei fraction (MZ2-MEL) [%] | cleaved PARP positive nuclei fraction (MeWo) [%] | cleaved PARP positive nuclei fraction (RPMI7951) [%] | cleaved PARP positive nuclei fraction (RVH-421) [%] | cleaved PARP positive nuclei fraction (SkMel28) [%] | cleaved PARP positive nuclei fraction (SkMel2) [%] | cleaved PARP positive nuclei fraction (SkMel30) [%] | cleaved PARP positive nuclei fraction (UACC62) [%] | cleaved PARP positive nuclei fraction (WM115) [%] | cleaved PARP positive nuclei fraction (WM1716) [%] | cleaved PARP positive nuclei fraction (WM1745) [%] | cleaved PARP positive nuclei fraction (WM3526) [%] | cleaved PARP positive nuclei fraction (WM3619) [%] | cleaved PARP positive nuclei fraction (WM451Lu) [%]
N#CC[C@H](C1CCCC1)n1cc(-c2ncnc3[nH]ccc23)cn1 [ruxolitinib] + C=C(c1ccc(C(=O)O)cc1)c1cc2c(cc1C)C(C)(C)CCC2(C)C [Bexarotene] (first compound 1 µM, partner dose 2 µM) | 163 | 66.4 | 56.3 | 103 | 43.4 | 23.6 | 155 | 110 | 54 | 72 | 93.6 | 81.9 | 98.4 | 130
COc1cc([C@@H]2c3cc4c(cc3[C@@H](O[C@@H]3O[C@@H]5CO[C@@H](C)O[C@H]5[C@H](O)[C@H]3O)[C@H]3COC(=O)[C@H]23)OCO4)cc(OC)c1O [etoposide] + CC1(C)CCC(c2ccc(Cl)cc2)=C(CN2CCN(c3ccc(C(=O)NS(=O)(=O)c4ccc(N[C@H](CCN5CCOCC5)CSc5ccccc5)c(S(=O)(=O)C(F)(F)F)c4)cc3)CC2)C1 [ABT263] (first compound 0.02 µM, partner dose 0.4 µM) | 174 | 558 | 158 | 77.5 | 62.3 | 231 | 101 | 49.1 | 415 | 72.4 | 804 | 123 | 98.4 | 69.4
Cc1ccc(Nc2nccc(N(C)c3ccc4c(C)n(C)nc4c3)n2)cc1S(N)(=O)=O [Pazopanib] + Cn1c(Nc2ccc(C(F)(F)F)cc2)nc2cc(Oc3ccnc(-c4ncc(C(F)(F)F)[nH]4)c3)ccc21 [CHIR265] (first compound 0.4 µM, partner dose 0.08 µM) | 129 | 70.2 | 207 | 360 | 223 | 113 | 117 | 62.5 | 324 | 217 | 111 | 52.1 | 103 | 25.9
O=C(Nc1cc(C(F)(F)F)cc(C(F)(F)F)c1)c1cc(Cl)ccc1O + C=C(c1ccc(C(=O)O)cc1)c1cc2c(cc1C)C(C)(C)CCC2(C)C [Bexarotene] (first compound 0.016 µM, partner dose 2 µM) | 108 | 108 | 126 | 106 | 134 | 154 | 117 | 83.7 | 82.5 | 71.2 | 108 | 240 | 111 | 107
Cc1cc(Nc2cc(N3CCN(C)CC3)nc(Sc3ccc(NC(=O)C4CC4)cc3)n2)n[nH]1 [Tozasertib] + O=C(Nc1cc(C(F)(F)F)cc(C(F)(F)F)c1)c1cc(Cl)ccc1O [IMD0354] (first compound 0.006 µM, partner dose 0.016 µM) | 281 | 54 | 91.8 | 51.2 | 83.8 | 118 | 93.1 | 41.9 | 18.9 | 159 | 100 | 104 | 109 | 94.9
CCCCCCCCCCCCCCCCCCOP(=O)([O-])OC1CC[N+](C)(C)CC1 [Perifosine] + O=C(O)c1ccc2c(c1)nc(Nc1cccc(Cl)c1)c1ccncc12 [CX4945] (first compound 0.4 µM, partner dose 0.4 µM) | 109 | 256 | 592 | 53.7 | 148 | 101 | 120 | 106 | 111 | 434 | 87 | 89.9 | 91.4 | 88
N#CC[C@H](C1CCCC1)n1cc(-c2ncnc3[nH]ccc23)cn1 [ruxolitinib] + Cc1cc(Nc2cc(N3CCN(C)CC3)nc(/C=C/c3ccccc3)n2)n[nH]1 [ENMD2076] (first compound 1 µM, partner dose 0.04 µM) | 102 | 326 | 119 | 68.1 | 74.1 | 58.2 | 32 | 56.8 | 42.6 | 269 | 105 | 43.3 | 95.3 | 82.5
Cc1ccc(Nc2nccc(N(C)c3ccc4c(C)n(C)nc4c3)n2)cc1S(N)(=O)=O [Pazopanib] + C[C@@H](Oc1cc(-c2cnn(C3CCNCC3)c2)cnc1N)c1c(Cl)ccc(F)c1Cl [Crizotinib] (first compound 0.4 µM, partner dose 0.2 µM) | 34.8 | 431 | 112 | 122 | 85.5 | 118 | 78.6 | 115 | 112 | 178 | 110 | 101 | 102 | 97.6
COc1cc([C@@H]2c3cc4c(cc3[C@@H](O[C@@H]3O[C@@H]5CO[C@@H](C)O[C@H]5[C@H](O)[C@H]3O)[C@H]3COC(=O)[C@H]23)OCO4)cc(OC)c1O [etoposide] + C[C@@H](Oc1cc(-c2cnn(C3CCNCC3)c2)cnc1N)c1c(Cl)ccc(F)c1Cl [Crizotinib] (first compound 0.02 µM, partner dose 0.2 µM) | 88.9 | 146 | 62.8 | 120 | 88.9 | 135 | 276 | 95.4 | 77.1 | 34.7 | 94.4 | 68.1 | 95.6 | 18.8
Cc1cn(-c2cc(NC(=O)c3ccc(C)c(Nc4nccc(-c5cccnc5)n4)c3)cc(C(F)(F)F)c2)cn1 [nilotinib] + COc1ccc(C2=N[C@@H](c3ccc(Cl)cc3)[C@@H](c3ccc(Cl)cc3)N2C(=O)N2CCNC(=O)C2)c(OC(C)C)c1 [Nutlin-3] (first compound 0.2 µM, partner dose 0.1 µM) | 120 | 35.1 | 111 | 64.8 | 267 | 42.8 | 95.8 | 217 | 153 | 102 | 99 | 96.9 | 92.2 | 82.1
N#CC[C@H](C1CCCC1)n1cc(-c2ncnc3[nH]ccc23)cn1 [ruxolitinib] + Cc1cn(-c2cc(NC(=O)c3ccc(C)c(Nc4nccc(-c5cccnc5)n4)c3)cc(C(F)(F)F)c2)cn1 [nilotinib] (first compound 1 µM, partner dose 0.2 µM) | 91 | 185 | 109 | 48.2 | 31.4 | 222 | 94.3 | 250 | 83.2 | 36.1 | 109 | 98.6 | 90.3 | 66.8
COc1cc([C@@H]2c3cc4c(cc3[C@@H](O[C@@H]3O[C@@H]5CO[C@@H](C)O[C@H]5[C@H](O)[C@H]3O)[C@H]3COC(=O)[C@H]23)OCO4)cc(OC)c1O [etoposide] + Clc1ccc(Nc2nnc(Cc3ccncc3)c3ccccc23)cc1 [vatalanib] (first compound 0.02 µM, partner dose 2 µM) | 124 | 144 | 102 | 66.6 | 188 | 144 | 43.1 | 67.1 | 98.7 | 41.9 | 89.6 | 258 | 183 | 66.4
O=C(Nc1cc(C(F)(F)F)cc(C(F)(F)F)c1)c1cc(Cl)ccc1O + C#Cc1cccc(Nc2ncnc3cc(OCCOC)c(OCCOC)cc23)c1 [erlotinib] (first compound 0.016 µM, partner dose 0.8 µM) | 142 | 148 | 88.4 | 90 | 174 | 99.2 | 167 | 114 | 65.8 | 136 | 203 | 47.8 | 105 | 77.8
O=c1[nH]nc(Sc2ncc([N+](=O)[O-])s2)n1-c1ccc2c(c1)OCCO2 + C[C@]1(O)C[C@@H](c2nc(-c3ccc4ccc(-c5ccccc5)nc4c3)c3c(N)nccn32)C1 [OSI906] (first compound 0.2 µM, partner dose 0.4 µM) | 96.1 | 53 | 135 | 32.7 | 89.5 | 221 | 117 | 83.9 | 191 | 36.9 | 119 | 61 | 108 | 22.3
CC[C@]1(O)C[C@H]2CN(CCc3c([nH]c4ccccc34)[C@@](C(=O)OC)(c3cc4c(cc3OC)N(C=O)[C@H]3[C@@](O)(C(=O)OC)[C@H](OC(C)=O)[C@]5(CC)C=CCN6CC[C@]43[C@@H]65)C2)C1 [vincristine] + CCCCCCCCc1ccc(CCC(N)(CO)CO)cc1 [fingolimod] (first compound 0.0001 µM, partner dose 2 µM) | 60.5 | 79.6 | 314 | 183 | 240 | 75.9 | 246 | 162 | 1010 | 396 | 144 | 74.9 | 204 | 67.9
O=C(/C=C/c1cccnc1)NCCCCC1CCN(C(=O)c2ccccc2)CC1 + Cc1nc(Nc2ncc(C(=O)Nc3c(C)cccc3Cl)s2)cc(N2CCN(CCO)CC2)n1 [dasatanib] (first compound 0.01 µM, partner dose 0.004 µM) | 1140 | 81.9 | 84.2 | 271 | 50.3 | 1050 | 125 | 192 | 95.2 | 109 | 125 | 97 | 115 | 321
O=C(Nc1cc(C(F)(F)F)cc(C(F)(F)F)c1)c1cc(Cl)ccc1O + Cc1cc(Nc2cc(N3CCN(C)CC3)nc(/C=C/c3ccccc3)n2)n[nH]1 [ENMD2076] (first compound 0.016 µM, partner dose 0.04 µM) | 73.7 | 163 | 28.4 | 57.1 | 91.9 | 121 | 73.3 | 50.9 | 154 | 105 | 93.7 | 37.6 | 98.1 | 157

Record cards (already shown). Values in the order: cleaved PARP positive nuclei fraction (MZ2-MEL) [%] | cleaved PARP positive nuclei fraction (MeWo) [%] | cleaved PARP positive nuclei fraction (RPMI7951) [%] | cleaved PARP positive nuclei fraction (RVH-421) [%] | cleaved PARP positive nuclei fraction (SkMel28) [%] | cleaved PARP positive nuclei fraction (SkMel2) [%] | cleaved PARP positive nuclei fraction (SkMel30) [%] | cleaved PARP positive nuclei fraction (UACC62) [%] | cleaved PARP positive nuclei fraction (WM115) [%] | cleaved PARP positive nuclei fraction (WM1716) [%] | cleaved PARP positive nuclei fraction (WM1745) [%] | cleaved PARP positive nuclei fraction (WM3526) [%] | cleaved PARP positive nuclei fraction (WM3619) [%] | cleaved PARP positive nuclei fraction (WM451Lu) [%]
Cc1ccc(Nc2nccc(N(C)c3ccc4c(C)n(C)nc4c3)n2)cc1S(N)(=O)=O [Pazopanib] + C[C@@H](Oc1cc(-c2cnn(C3CCNCC3)c2)cnc1N)c1c(Cl)ccc(F)c1Cl [Crizotinib] (first compound 0.4 µM, partner dose 0.2 µM) as listed: 34.8 | 431 | 112 | 122 | 85.5 | 118 | 78.6 | 115 | 112 | 178 | 110 | 101 | 102 | 97.6
O=C(Nc1cc(C(F)(F)F)cc(C(F)(F)F)c1)c1cc(Cl)ccc1O + C=C(c1ccc(C(=O)O)cc1)c1cc2c(cc1C)C(C)(C)CCC2(C)C [Bexarotene] (first compound 0.016 µM, partner dose 2 µM) as listed: 108 | 108 | 126 | 106 | 134 | 154 | 117 | 83.7 | 82.5 | 71.2 | 108 | 240 | 111 | 107
